PubChem BioAssay AID1053208 – Peter MacCallum Cancer Centre | 2014

Assay: 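Synthetic lethal interactions between gene loss and doxorubicin in osteosarcoma cells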 (primary screen)
System: mouse osteosarcoma cells, early-passage culture from an engineered mouse model of fibroblastic bone tumour
Reagent: siRNA pool against mouse genes, 40 nM
Duration: about 120 h (48 h before drug, then 72 h with drug)
Treatment: doxorubicin 100 nM for 72 h, roughly 30-40% inhibitory dose
Measurement: 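Viability read as ATP luminescence after 72 h of 100 nM doxorubicin or none, duplicate wells averaged, scaled to non-targeting siRNA, then expressed as robust z-scores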
Scale: viability z-score with doxorubicin: higher = more viable cells under doxorubicin; viability z-score without drug: higher = more viable cells with knock-down alone; z-score of drug to no-drug ratio: higher = less drug sensitisation by knock-down
Active means: 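a pool counts as active when its viability z-score with doxorubicin is -2 or below and its z-score without drug lies between -2 and 2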
Here is a random part of about 17,000 reagents tested. 788 of all reagents (4.7%) count as active. 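Calls rest on z-score classes alone; an extra cut-off of viability at most 70% of control was not applied to them.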 Reagents against one gene are numbered here. Further read-outs or replicates are left out here.

| gene knocked down | reagent | combined z-score class | viability z-score with doxorubicin | viability z-score without drug | z-score of drug to no-drug ratio | activity call |
| --- | --- | --- | --- | --- | --- | --- |
| Cavin3 (caveolae associated 3) | 1 | no change with or without drug | 1.57 | 0.51 | 1.35 | inactive |
| Bin1 (bridging integrator 1) | 1 | no change with or without drug | 1.8 | 1.85 | 0.67 | inactive |
| Riok1 (RIO kinase 1) | 1 | no change with or without drug | -0.67 | 0.67 | -1.01 | inactive |
| Frmd5 (FERM domain containing 5) | 1 | no change with or without drug | 0.67 | 0.17 | 0.67 | inactive |
| Galnt12 (polypeptide N-acetylgalactosaminyltransferase 12) | 1 | no change with or without drug | 0 | -0.17 | 0.22 | inactive |
| Psmg3 (proteasome (prosome, macropain) assembly chaperone 3) | 1 | no change with or without drug | -0.67 | 1.18 | -1.35 | inactive |
| Tm7sf3 (transmembrane 7 superfamily member 3) | 1 | no change with or without drug | -0.11 | 0.17 | -0.11 | inactive |
| Cmtr2 (cap methyltransferase 2) | 1 | no change with or without drug | 1.35 | 0 | 1.57 | inactive |
| Tas2r119 (taste receptor, type 2, member 119) | 1 | no change with or without drug | 1.12 | -0.34 | 1.57 | inactive |
| Defb2 (defensin beta 2) | 1 | no change with or without drug | 0 | 0.34 | -0.11 | inactive |
| Pgap6 (post-glycosylphosphatidylinositol attachment to proteins 6) | 1 | high cell count without drug only | 1.57 | 2.36 | 0.11 | inactive |
| Mcub | 1 | no change with or without drug | 0.9 | 0.84 | 0.45 | inactive |
| Map1lc3b (microtubule-associated protein 1 light chain 3 beta) | 1 | no change with or without drug | -1.12 | -0.67 | -0.67 | inactive |
| Tctn3 (tectonic family member 3) | 1 | no change with or without drug | -1.01 | 1.52 | -1.8 | inactive |
| Ms4a3 (membrane-spanning 4-domains, subfamily A, member 3) | 1 | no change with or without drug | 0 | -0.17 | 0.22 | inactive |
| Il17rd (interleukin 17 receptor D) | 1 | no change with or without drug | 0 | 0.17 | 0 | inactive |
| Il17rd (interleukin 17 receptor D) | 2 | no change with or without drug | 0.34 | 0.34 | 0.22 | inactive |
| Glycam1 (glycosylation dependent cell adhesion molecule 1) | 1 | no change with or without drug | 0.67 | 0.51 | 0.45 | inactive |
| Slc8a3 | 1 | no change with or without drug | 0.9 | -0.17 | 1.24 | inactive |
| Cct4 (chaperonin containing TCP1 subunit 4) | 1 | no change with or without drug | 1.57 | -1.35 | 2.92 | inactive |
| Xkr5 (XK related 5) | 1 | no change with or without drug | -0.67 | 0.34 | -0.79 | inactive |
| Pudp (pseudouridine 5'-phosphatase) | 1 | no change with or without drug | 0.67 | 0.84 | 0.22 | inactive |
| Pgc (progastricsin (pepsinogen C)) | 1 | no change with or without drug | -0.9 | 0.84 | -1.35 | inactive |
| Snx31 (sorting nexin 31) | 1 | no change with or without drug | -0.22 | -0.17 | 0 | inactive |
| Tdrd3 (tudor domain containing 3) | 1 | no change with or without drug | -0.56 | -0.51 | -0.11 | inactive |
| Fkbp9 (FK506 binding protein 9) | 1 | high cell count with doxorubicin only | 2.02 | 1.69 | 1.01 | inactive |
| Pou4f3 (POU domain, class 4, transcription factor 3) | 1 | no change with or without drug | 1.12 | 1.35 | 0.34 | inactive |
| Aqp6 (aquaporin 6) | 1 | no change with or without drug | 0.22 | -0.84 | 1.01 | inactive |
| Apol9b (apolipoprotein L 9b) | 1 | no change with or without drug | -0.45 | 1.69 | -1.35 | inactive |
| Tmem98 (transmembrane protein 98) | 1 | no change with or without drug | 0.79 | 0.51 | 0.56 | inactive |
| Irf2bp1 (interferon regulatory factor 2 binding protein 1) | 1 | low cell count with doxorubicin only | -2.25 | -1.01 | -1.69 | active |
| Acer1 (alkaline ceramidase 1) | 1 | no change with or without drug | 1.57 | 1.52 | 0.67 | inactive |
| Adm (adrenomedullin) | 1 | no change with or without drug | 1.57 | 1.52 | 0.67 | inactive |
| Apoc2 (apolipoprotein C2) | 1 | no change with or without drug | -1.46 | -0.67 | -1.01 | inactive |
| Eepd1 | 1 | high cell count without drug only | -0.67 | 2.19 | -1.91 | inactive |
| Ptpn12 (protein tyrosine phosphatase, non-receptor type 12) | 1 | no change with or without drug | 0.79 | -0.17 | 1.01 | inactive |
| Tnnc1 (troponin C, cardiac/slow skeletal) | 1 | no change with or without drug | -1.57 | -0.84 | -1.01 | inactive |
| Rexo2 (RNA exonuclease 2) | 1 | no change with or without drug | 1.12 | 0.34 | 1.01 | inactive |
| 4833420G17Rik (RIKEN cDNA 4833420G17 gene) | 1 | no change with or without drug | 0 | 0.51 | -0.22 | inactive |
| Efr3a (EFR3 homolog A) | 1 | no change with or without drug | -0.67 | -0.17 | -0.45 | inactive |
| Efr3a (EFR3 homolog A) | 2 | no change with or without drug | 1.46 | -1.18 | 2.7 | inactive |
| Atp10a (ATPase, class V, type 10A) | 1 | no change with or without drug | -1.57 | 0.34 | -1.8 | inactive |
| Pdia5 (protein disulfide isomerase associated 5) | 1 | no change with or without drug | 0.22 | 1.18 | -0.45 | inactive |
| Ubl4a (ubiquitin-like 4A) | 1 | no change with or without drug | 1.12 | 1.35 | 0.34 | inactive |
| Cdc7 (cell division cycle 7) | 1 | no change with or without drug | 0 | -1.18 | 1.01 | inactive |
| Cdkl4 (cyclin dependent kinase like 4) | 1 | no change with or without drug | 1.01 | 0.51 | 0.79 | inactive |
| Nup133 (nucleoporin 133) | 1 | low cell count without drug only | -1.35 | -3.04 | 0.9 | inactive |
| Slc6a1 | 1 | no change with or without drug | 1.24 | 0.84 | 0.79 | inactive |
| Paqr4 (progestin and adipoQ receptor family member IV) | 1 | no change with or without drug | -1.57 | -1.52 | -0.56 | inactive |
| Fbxo24 (F-box protein 24) | 1 | no change with or without drug | 0.22 | 0.51 | 0 | inactive |

5 entries already listed, ordered by “z-score of drug to no-drug ratio”, high to low.
| gene knocked down | reagent | combined z-score class | viability z-score with doxorubicin | viability z-score without drug | z-score of drug to no-drug ratio | activity call |
| --- | --- | --- | --- | --- | --- | --- |
| Pudp (pseudouridine 5'-phosphatase) | 1 | no change with or without drug | 0.67 | 0.84 | 0.22 | inactive |
| Snx31 (sorting nexin 31) | 1 | no change with or without drug | -0.22 | -0.17 | 0 | inactive |
| Tdrd3 (tudor domain containing 3) | 1 | no change with or without drug | -0.56 | -0.51 | -0.11 | inactive |
| Xkr5 (XK related 5) | 1 | no change with or without drug | -0.67 | 0.34 | -0.79 | inactive |
| Pgc (progastricsin (pepsinogen C)) | 1 | no change with or without drug | -0.9 | 0.84 | -1.35 | inactive |
